According to patent US20130267025A1:
No constants are given. Whether binding was seen depends on the method and setting. Binding seen in cells or lysates may run through a third protein. Some binding calls cover weakened binding; strength is not graded here.

Chains of the proteins cited; added tags and fusions are not shown. Lines headed by an entry give the natural chain unless they say otherwise; changes in a name come on top.
UniProt P63172: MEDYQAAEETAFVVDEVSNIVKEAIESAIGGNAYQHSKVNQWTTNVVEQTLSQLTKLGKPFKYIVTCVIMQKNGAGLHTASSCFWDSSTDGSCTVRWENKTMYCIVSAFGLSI
UniProt Q9UBP4: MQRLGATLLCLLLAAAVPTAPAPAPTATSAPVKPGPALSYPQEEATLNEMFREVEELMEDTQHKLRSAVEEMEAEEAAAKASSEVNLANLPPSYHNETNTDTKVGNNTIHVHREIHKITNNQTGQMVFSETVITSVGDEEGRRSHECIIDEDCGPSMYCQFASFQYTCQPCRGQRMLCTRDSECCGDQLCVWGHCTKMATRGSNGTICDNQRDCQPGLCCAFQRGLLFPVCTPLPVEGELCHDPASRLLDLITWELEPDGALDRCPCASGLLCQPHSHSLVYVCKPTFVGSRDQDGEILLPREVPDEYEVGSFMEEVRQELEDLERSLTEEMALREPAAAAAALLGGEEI

Experiments:
[1] = target: V5-tagged Tctex-1 (V5-Tctex-1 fusion protein), expressed from pcDNA3.2/V5/GW/D-TOPO (human) (UniProt P63172); experiment: co-immunoprecipitation and Western blot (legend of FIG. 18B)
[2] = target: V5-tagged Tctex-1 (V5-Tctex-1 fusion protein), expressed from pcDNA3.2/V5/GW/D-TOPO (human) (UniProt P63172); experiment: co-immunoprecipitation with anti-Myc antibody from 293T lysates, Western blot with V5 antibody

Question: How did the binding [1] turn out when “Myc-tagged REIC/Dkk-3 (Myc-REIC/Dkk-3 fusion protein), expressed in 293T cells (from UniProt Q9UBP4 22-350)” was run?
Answer: The binding was “binds”.

Question: What about the binding [2] of the same substance?
Answer: Its binding is “binds”.
